# What follows is the remainder of the data, with few or none of the hits. Inconclusive results are not listed. Active and inactive are the calls of the source. Calls follow the shape of the dose curve; as a rule, active = well fitted activation curve with a large enough effect; inconclusive = small, poorly fitted or top-dose-only effect, or another doubt; inactive = no such curve, though single readings can be large or run the other way.
# Assay: Primary qHTS for Identification of Small Molecule Activators of Huntingtin-Antisense Promoter Activity; also: nearly all actives have a fitted effect of over 55% in size
# Conditions: HEK293 HTT-AS promoter firefly luciferase reporter (activity 0% = vehicle and -100% = no light), 24 h; at 57.5 µM (top of the series)
# Text: Assay Provider: Russell L. Margolis M.D.
# Department Neurology, Johns Hopkins University School of Medicine, Baltimore, MD
# Huntington's Disease (HD) is a neurodegenerative disorder caused by a CAG repeat expansion in exon 1 of huntingtin (HTT). While there are currently no disease-modifying treatments for HD, recent efforts have focused on development of nucleotide-based therapeutics to lower HTT expression. As an alternative to siRNA or oligonucleotide methods, we hypothesized that suppression of HTT expression might be accomplished by small molecules that either (1) directly decrease HTT expression by suppressing HTT promoter activity or (2) indirectly decrease HTT expression by increasing the promoter activity of HTT-AS, the gene antisense to HTT that appears to inhibit expression of HTT. […]
# 7; Detection; Luminescence; FLuc […]
# 1; High-throughput screening, measuring luminescence from a Hek293 luciferase reporter, was performed in 1,536 well white-walled tissue-culture treated plates. […]
# 4; Cells were then incubated for 24 hours at 37 degrees C prior to luminescence measurements.
# 5; In all cases, luminescence was measured using the Dual-Glo Luciferase Reporter Assay System (Promega) following the manufacturer's instructions. […]
# 7; Luminescence signal was obtained using the PerkinElmer ViewLux plate reader. […]
row,Structure (SMILES),"activity change, positive = activation"
1,CC(C)(C)c1ccc(O)cc1,inactive: 0.659%
